According to US20040209841A1, “Association compound of trehalose or maltitol with metal ion compound” (priority 2001, published 2004):

Experiment: Suppressing effect on the formation of scum during the cooking of boiled foods (Experiment 10)
Conditions: for Calcium in scum / Magnesium in scum / Potassium in scum / Sodium in scum: 10% (w/w) saccharide; for Weight of scum: 30 g pork, 400 ml 10% (w/w) saccharide, boiled five minutes; for Calcium in scum (%) / Magnesium in scum (%) / Potassium in scum (%) / Sodium in scum (%) / Weight of scum (%): no saccharide = 100

| SMILES | Calcium in scum | Magnesium in scum | Potassium in scum | Sodium in scum | Weight of scum | Calcium in scum (%) | Magnesium in scum (%) | Potassium in scum (%) | Sodium in scum (%) | Weight of scum (%) |
| --- | --- | --- | --- | --- | --- | --- | --- | --- | --- | --- |
| OC[C@H]1O[C@H](O[C@H]2[C@H](O)[C@@H](O)C(O)O[C@@H]2CO)[C@H](O)[C@@H](O)[C@@H]1O (mixture of isomers) [Maltose, maltose] | 0.092 mg | 0.050 mg | 0.025 mg | 0.283 mg | 2.126 g | 79% | 89% | 109% | 115% | 94% |
| OC[C@@H](O)[C@@H](O[C@H]1O[C@H](CO)[C@@H](O)[C@H](O)[C@H]1O)[C@H](O)[C@@H](O)CO [Maltitol, maltitol] | 0.030 mg | 0.029 mg | 0.015 mg | 0.183 mg | 0.802 g | 26% | 52% | 65% | 74% | 36% |
